Measured data: PubChem BioAssay AID504784 (Drosophila RNAi Screening Center, 2011)

Screen: 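Fly genes whose silencing alters how much lipid cells keep in droplets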 (primary screen)
Cells: Drosophila Kc167 embryonic cells
Reagents: long dsRNA against Drosophila genes, about 250 ng dsRNA per well
Timing: 4 days
Challenge: cells fed 400 µM oleic acid bound to BSA
Measured: 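Cells imaged and segmented; ratio of lipid droplet area to nuclear area, log-transformed, then normalised as a B-score over the screen; higher means more stored lipid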
Direction: droplet/nuclear area B-score: higher = more stored lipid (overstorage)
In all, the deposit lists about 17,000 reagents; below is an unselected part of those with a known target gene and a result. 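Each column is one replicate's B-score; the combined score over replicates was not deposited, so single values may mislead.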 Reagents against one gene are numbered here. A plus sign joins genes that one reagent is predicted to hit. Further read-outs or replicates are left out here. No sequences are given here.

gene knocked down | dsRNA no. | droplet/nuclear area B-score, replicate 1 | droplet/nuclear area B-score, replicate 2
CG7810 | 1 | -2.63 | -0.0881
GstD11 | 1 | 0.686 | 0.24
CG31954 | 1 | 0.886 | 0.687
Cpr47Ef | 1 | 3.12 | 0.0495
Cpr47Ef | 2 | 0.0184 | -0.153
CkIalpha | 1 | 2.05 | 2.84
CkIalpha | 2 | 2.23 | –
CkIalpha | 3 | 0.979 | 1.97
Obp57c | 1 | -1.5 | -1.19
Npl4 | 1 | -0.65 | –
Npl4 | 2 | -0.139 | -0.642
Usp5 | 1 | -1.38 | -0.498
CG32354 | 1 | 0.819 | -0.878
CG32354 | 2 | -1.68 | -0.448
CG32354 | 3 | 4.52 | -3.39
CG7065 | 1 | -1.88 | 0.277
CG8243 | 1 | 0.724 | -1.26
CG8243 | 2 | -1.46 | -4.23
CG2875 | 1 | 0.392 | –
COX5BL | 1 | -0.201 | 1.41
chn | 1 | 0.371 | 1.44
milt | 1 | -0.407 | 0.764
milt | 2 | -1.42 | -0.127
milt | 3 | 0.00924 | -2.06
CG1774 | 1 | -0.069 | –
CG3309 | 1 | -0.62 | –
peg | 1 | 0.516 | 0.0131
Dph3 | 1 | 1.24 | -1.1
Apoltp | 1 | 0.22 | 0.341
CG33493 | 1 | -0.49 | -0.858
salr | 1 | 1.82 | 1.01
Elys | 1 | 0.436 | 0.259
CG12910 | 1 | 0.149 | 1.72
CG15237 | 1 | -0.151 | -2.12
Zasp67 | 1 | 0.0108 | -0.224
Nf-YA | 1 | -0.296 | 0.036
Nf-YA | 2 | 0.378 | -0.674
CG11629 | 1 | -0.473 | 1.12
Ak2 | 1 | -0.845 | -1.2
Stt3A | 1 | -0.145 | 0.00408
CG14005 | 1 | 0.155 | -1.55
Sik3 | 1 | -0.619 | 0.00306
Sik3 | 2 | -0.00334 | -0.538
rnh1 | 1 | 3.76 | 4.16
COX6AL | 1 | 0.037 | 0.564
ast | 1 | -0.854 | -1.63
CG17839 | 1 | 1.44 | -0.434
CG17839 | 2 | -2.15 | 0.533
Damm | 1 | 0.921 | 0.772
tomboy40 | 1 | 0.0232 | 0.00794
CG31917 + Tfb5 | 1 | 0.00942 | -2.45
CG31917 + Tfb5 | 2 | -0.563 | 0.391
Rab1 | 1 | -0.388 | 2.5
eIF4E3 | 1 | 5.87 | 0.969
TfIIFbeta | 1 | 0.974 | 1.13
TfIIFbeta | 2 | -0.447 | 1.32
CG5800 | 1 | -0.648 | -0.29
CG13155 | 1 | 0.377 | 1.03
Lk | 1 | 0.0584 | 0.652
Ppn | 1 | -2.74 | 0.795
RpL5 | 1 | -1.17 | 6.56
CG8757 | 1 | -0.463 | 0.2
CG34205 | 1 | 0.0487 | -0.293
CG34205 | 2 | 7.03 | 2.34
Ltn1 | 1 | -1.94 | 0.382
Ltn1 | 2 | 0.161 | -0.0501
side-IV + CG17025 (retired record) | 1 | -1.42 | -1.78
CG32639 | 1 | -1.23 | -1.38
PolD2 | 1 | -0.175 | 1.87
CG31327 | 1 | -0.335 | 1.71
Gyc89Db | 1 | -0.0225 | -3.07
grass | 1 | -0.458 | 1.56
SLC5A11 | 1 | 0.527 | -0.809
CG10814 | 1 | -0.6 | -0.0081
CG15773 | 1 | 0.0226 | 0.72
Gem4b + Gem4c + Glos | 1 | 0.607 | 0.441
Fgop2 | 1 | 0.0225 | 0.752
wrd | 1 | 0.73 | –
wrd | 2 | -2.12 | -2.87
wrd | 3 | 0.546 | -0.96
Bub1 | 1 | 4.67 | 2.98
Bub1 | 2 | -1.68 | 0.21
Kdm4A | 1 | -0.793 | 0.394

Entries above whose gene name starts with T or t (3):
gene knocked down | dsRNA no. | droplet/nuclear area B-score, replicate 1 | droplet/nuclear area B-score, replicate 2
tomboy40 | 1 | 0.0232 | 0.00794
TfIIFbeta | 1 | 0.974 | 1.13
TfIIFbeta | 2 | -0.447 | 1.32
